This assay has as its target T1, GST-VosA (A. nidulans) (UniProt Q5BBX1).
T1 sequence: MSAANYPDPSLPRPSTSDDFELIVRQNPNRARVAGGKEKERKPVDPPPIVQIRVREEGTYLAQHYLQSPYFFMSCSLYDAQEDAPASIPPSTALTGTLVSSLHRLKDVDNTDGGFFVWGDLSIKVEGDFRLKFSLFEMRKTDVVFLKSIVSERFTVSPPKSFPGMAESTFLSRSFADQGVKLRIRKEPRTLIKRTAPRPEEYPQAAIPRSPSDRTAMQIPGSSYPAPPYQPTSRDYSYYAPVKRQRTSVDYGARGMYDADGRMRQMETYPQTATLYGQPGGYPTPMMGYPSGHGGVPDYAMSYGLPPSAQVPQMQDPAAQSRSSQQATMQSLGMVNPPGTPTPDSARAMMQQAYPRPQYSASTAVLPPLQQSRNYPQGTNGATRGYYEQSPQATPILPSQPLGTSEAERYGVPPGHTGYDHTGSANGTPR
The assay is described as follows: pull-down; GST-VosA on glutathione beads; equal amounts of in vitro translated 35S-labelled proteins added; 4°C overnight; washed three times with lysis buffer; SDS-PAGE and autoradiography; glutathione bead-GST as control; only the target purified.

No constants are given. Whether binding was seen depends on the method and setting. Binding seen in cells or lysates may run through a third protein. Some entries that bind do so weakly or less than the wild type. Where a sequence is shown, tags or fusion partners need not be part of it.

B1: VelC (in vitro translated, 35S-labelled, from pNI42) (protein, UniProt Q5BBM1 1-524)
chain: MTTHVGPQTTLLHQTGQISALIAGEAVQTCEASSCQMSGTPFQQWTYVTEGRYTNARTHPSDEDRRRQTTVSNPRYLAQEPPRFLLPTAQNNAPTMSQSATYSTLPVQGFPEQNRVLDNRSDPKYGPLPATTGSLAQYSIQRPSTSRNMENAGSSSSYYDAPSCSRGSVGSIGRMNDLDSQYSGSTTAFPSPVHSDSSPIYPAIAPISGYQQQLPIHQRHTTSSMPSGFENLLHHHSTSPSPPPRCASSSSRYRLFIRQQPLAARACGAGDRDRRPVDPPPIIQLLLTEFNPNSEKDRSILQDPRFTVGCLLYPVRNPSYLPGSGSGAGSSDTNTNSNDKSRHESMSSYSQLGINLEDSHATGQSTPLLSGKAFVSPFFVDEEPDPNTAPAHPSSTDDSTYDASPRTVTHRFRNRPLPKPPACFFIFSDLSVRTAGLYRLQFRLMNWGSIEDTGQSMPILAEVWSEPFRVCAAKDFPGMRDSSLLTLRLKELGFVELKTRGQGMGKGRRVGIGSSKVSSRARVE
modifications: [35S]-methionine label
In the case of B1, the binding result is “binds”.

Values taken from publication PMC3938535.
